Some results were stated once for a whole list of compounds, not compound by compound.
What was measured:
Format in all cases: in vivo
[1] = tested on: Galium aparine; assay: Test Example 1-3: foliar spray, controlling effect on Galium aparine; conditions: treatment amount 250 g/ha; sprayed at second- to third-leaf stage; visually evaluated after 20 days
Procedure: A plastic cup with a diameter of 8 cm and a depth of 6.5 cm was filled with soil. Seeds of Galium aparine were sowed in the cup, and then the plant was grown until the second- to third-leaf stage. Then, a determined amount of a test solution containing the compound of the present invention was sprayed onto the whole plant uniformly. The test solution was prepared by dissolving a predetermined amount of the compound of the present invention in a 2% solution of Tween 20 (polyoxyethylene sorbitan fatty acid ester, MP Biomedicals, Inc.) in dimethylformamide and then diluting the solution with water. After the spray treatment, the plant was grown in a greenhouse. After 20 days, a controlling effect of the compound on Galium aparine was visually evaluated. The effect was classified into 11 levels, from 0 to 10 (0 represents “no effect”; 10 represents “complete death”; and a state of the plant therebetween is classified into 1 to 9).
(§1) Compound D was similarly tested as a comparative example.

[2] = tested on: Echinochloa crus-galli; assay: Test Example 1-2: foliar spray, controlling effect on Echinochloa crus-galli; conditions: treatment amount 1,000 g/ha; sprayed at second- to third-leaf stage; visually evaluated after 20 days
Procedure: A plastic cup with a diameter of 8 cm and a depth of 6.5 cm was filled with soil. Seeds of Echinochloa crus-galli were sowed in the cup, and then the plant was grown until the second- to third-leaf stage. Then, a determined amount of a test solution containing the compound of the present invention was sprayed onto the whole plant uniformly. The test solution was prepared by dissolving a predetermined amount of the compound of the present invention in a 2% solution of Tween 20 (polyoxyethylene sorbitan fatty acid ester, MP Biomedicals, Inc.) in dimethylformamide and then diluting the solution with water. After the spray treatment, the plant was grown in a greenhouse. After 20 days, a controlling effect of the compound on Echinochloa crus-galli was visually evaluated. The effect was classified into 11 levels, from 0 to 10 (0 represents “no effect”; 10 represents “complete death”; and a state of the plant therebetween is classified into 1 to 9).
as §1

[3] = tested on: Lolium multiflorum; assay: Test Example 1-1: foliar spray, controlling effect on Lolium multiflorum; conditions: treatment amount 250 g/ha; sprayed at first to second leaf stage; visually evaluated after 20 days
Procedure: A plastic cup with a diameter of 8 cm and a depth of 6.5 cm was filled with soil. Seeds of Lolium multiflorum were sowed in the cup, and then the plant was grown until the first to second leaf stage. Then, a determined amount of a test solution containing the compound of the present invention was sprayed onto the whole plant uniformly. The test solution was prepared by dissolving a predetermined amount of the compound of the present invention in a 2% solution of Tween 20 (polyoxyethylene sorbitan fatty acid ester, MP Biomedicals, Inc.) in dimethylformamide and then, diluting the solution with water. After the spray treatment, the plant was grown in a greenhouse. After 20 days, a controlling effect of the compound on Lolium multiflorum was visually evaluated. The effect was classified into 11 levels, from 0 to 10 (0 represents “no effect”; 10 represents “complete death”; and a state of the plant therebetween is classified into 1 to 9).
Compound D as shown below was similarly tested as a comparative example.

[4] = tested on: Aphis gossypii; assay: Test Example 2-9: cucumber root immersion, imagoes of Aphis gossypii; conditions: 500 ppm, root portion of cucumber seedling immersed in 5 ml; insects added after one day, counted after 7 days

SMILES | controlling effect on Galium aparine (11 levels, 0 to 10) [1] | controlling effect on Echinochloa crus-galli (11 levels, 0 to 10) [2] | controlling effect on Lolium multiflorum (11 levels, 0 to 10) [3] | controlling value [4] [%]
CCc1cc(CC)c(-c2c(OCSC)c(C)nn(C)c2=O)c(CC)c1 [I-2-2, 2,6-dimethyl-5-methylthiomethoxy-4-(2,4,6-triethylphenyl)-3(2H)-pyridazinone] | ≥ 8 | ≥ 8 |  | 
CCc1cc(CC)c(-c2c(OC[S+](C)[O-])c(C)nn(C)c2=O)c(CC)c1 (stereo not shown) [I-3-1, 2,6-dimethyl-5-methylsulfinylmethoxy-4-(2,4,6-triethylphenyl)-3(2H)-pyridazinone] | ≥ 8 | ≥ 8 |  | 
CCc1cc(C)cc(CC)c1-c1c(OCOC)c(C)nn(C)c1=O [I-1-1] | ≥ 8 | ≥ 8 | ≥ 8 | 
CCc1cc(CC)c(-c2c(OCCl)c(C)nn(C)c2=O)c(CC)c1 [I-5-1, 5-chloromethoxy-2,6-dimethyl-4-(2,4,6-triethylphenyl)-3(2H)-pyridazinone] | ≥ 8 | ≥ 8 |  | 
CCOCOc1c(C)nn(C)c(=O)c1-c1c(C)cc(C)cc1CC [I-1-4] | ≥ 8 | ≥ 8 | ≥ 8 | 
CCOCOc1cnn(C)c(=O)c1-c1c(C)cc(C)cc1C [I-1-8] |  | ≥ 8 |  | 
CCc1cc(C)cc(CC)c1-c1c(OCSC)c(C)nn(C)c1=O [I-2-1, 4-(2,6-diethyl-4-methylphenyl)-2,6-dimethyl-5-methylthiomethoxy-3(2H)-pyridazinone] | ≥ 8 | ≥ 8 | ≥ 8 | ≥ 90
CCOC(=O)N(COc1c(C)nn(C)c(=O)c1-c1c(CC)cc(C)cc1CC)c1ccccc1 [I-6-1, 4-(2,6-diethyl-4-methylphenyl)-5-(N-ethoxycarbonyl-N-phenylaminomethoxy)-2,6-dimethyl-3(2H)-pyridazinone] | ≥ 8 | ≥ 8 | ≥ 8 | 
CCc1cc(CC)c(-c2c(OCOCc3ccccc3)c(C)nn(C)c2=O)c(CC)c1 [I-1-5] | ≥ 8 | ≥ 8 |  | 
CCOCOc1c(C)nn(C)c(=O)c1-c1c(CC)cc(C)cc1CC [I-1-2, 4-(2,6-diethyl-4-methylphenyl)-5-ethoxymethoxy-2,6-dimethyl-3(2H)-pyridazinone] | ≥ 8 | ≥ 8 | ≥ 8 | 
CCOCOc1c(C)nn(C)c(=O)c1-c1c(CC)cc(CC)cc1CC [I-1-3] | ≥ 8 | ≥ 8 | ≥ 8 | 

Reference: US8507410B2, “Pyridazinone compound and use thereof” (Sumitomo Chemical Company, Limited, priority 2009, dated 2013)
